No constants are given. Whether binding was seen depends on the method and setting. Binding seen in cells or lysates may run through a third protein. Binding can be weak; no strength is given. Where a sequence is shown, tags or fusion partners need not be part of it.
Molecular target: Flag-mut-PDIA5 (human) (UniProt Q14554)
Test: co-IP; U87MG and U251MG cells stably overexpressing Flag-mut-PDIA5 and HA-CCAR1; lysate incubated with Flag antibody or rabbit IgG at 4°C for 6 h; blot with HA antibody; called bidirectional in the results

Sequences of proteins named here, by UniProt entry; tags and fusion partners are left off. A change or cut given only in a name is not applied to a line headed by its entry.
UniProt Q14554: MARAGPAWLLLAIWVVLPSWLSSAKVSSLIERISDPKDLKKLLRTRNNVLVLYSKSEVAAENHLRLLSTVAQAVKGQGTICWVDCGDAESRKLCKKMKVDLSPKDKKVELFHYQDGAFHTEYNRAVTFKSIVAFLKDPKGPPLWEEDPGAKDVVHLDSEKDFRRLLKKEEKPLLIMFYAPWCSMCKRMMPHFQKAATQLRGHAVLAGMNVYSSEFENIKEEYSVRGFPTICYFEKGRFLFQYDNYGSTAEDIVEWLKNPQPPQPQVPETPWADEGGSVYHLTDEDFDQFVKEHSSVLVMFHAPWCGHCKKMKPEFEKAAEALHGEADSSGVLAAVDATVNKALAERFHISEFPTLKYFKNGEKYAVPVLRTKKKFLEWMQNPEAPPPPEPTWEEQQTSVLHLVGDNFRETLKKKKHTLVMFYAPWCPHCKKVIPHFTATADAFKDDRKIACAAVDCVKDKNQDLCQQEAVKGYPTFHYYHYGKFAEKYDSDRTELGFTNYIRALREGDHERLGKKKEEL

binding: binds
B1: HA-CCAR1 (in GBM cells) (protein, UniProt Q8IX12 1-1150)
chain: MAQFGGQKNPPWATQFTATAVSQPAALGVQQPSLLGASPTIYTQQTALAAAGLTTQTPANYQLTQTAALQQQAAAAAAALQQQYSQPQQALYSVQQQLQQPQQTLLTQPAVALPTSLSLSTPQPTAQITVSYPTPRSSQQQTQPQKQRVFTGVVTKLHDTFGFVDEDVFFQLSAVKGKTPQVGDRVLVEATYNPNMPFKWNAQRIQTLPNQNQSQTQPLLKTPPAVLQPIAPQTTFGVQTQPQPQSLLQAQISAASITPLLQTQPQPLLQQPQQKAGLLQPPVRIVSQPQPARRLDPPSRFSGRNDRGDQVPNRKDDRSRERERERRRSRERSPQRKRSRERSPRRERERSPRRVRRVVPRYTVQFSKFSLDCPSCDMMELRRRYQNLYIPSDFFDAQFTWVDAFPLSRPFQLGNYCNFYVMHREVESLEKNMAILDPPDADHLYSAKVMLMASPSMEDLYHKSCALAEDPQELRDGFQHPARLVKFLVGMKGKDEAMAIGGHWSPSLDGPDPEKDPSVLIKTAIRCCKALTGIDLSVCTQWYRFAEIRYHRPEETHKGRTVPAHVETVVLFFPDVWHCLPTRSEWETLSRGYKQQLVEKLQGERKEADGEQDEEEKDDGEAKEISTPTHWSKLDPKTMKVNDLRKELESRALSSKGLKSQLIARLTKQLKVEEQKEEQKELEKSEKEEDEDDDRKSEDDKEEEERKRQEEIERQRRERRYILPDEPAIIVHPNWAAKSGKFDCSIMSLSVLLDYRLEDNKEHSFEVSLFAELFNEMLQRDFGVRIYKSLLSLPEKEDKKEKDKKSKKDERKDKKEERDDETDEPKPKRRKSGDDKDKKEDRDERKKEDKRKDDSKDDDETEEDNNQDEYDPMEAEEAEDEEDDRDEEEMTKRDDKRDINRYCKERPSKDKEKEKTQMITINRDLLMAFVYFDQSHCGYLLEKDLEEILYTLGLHLSRAQVKKLLNKVVLRESCFYRKLTDTSKDEENHEESESLQEDMLGNRLLLPTPTVKQESKDVEENVGLIVYNGAMVDVGSLLQKLEKSEKVRAEVEQKLQLLEEKTDEDEKTILNLENSNKSLSGELREVKKDLSQLQENLKISENMNLQFENQMNKTIRNLSTVMDEIHTVLKKDNVKNEDKDQKSKENGASV

— paper PMC11379074
